Measured values from publication PMC10387068.
These are yes or no findings as the source states them, for the method shown. In cells and extracts the contact can be indirect. Some results given as binding are weak or reduced against the parent protein; the word gives no strength. Sequences can lack the tags named with a protein.

The chains behind the UniProt entries cited, without tags or fusion partners. Residues count along the entry.
UniProt Q13467, residues 27-585: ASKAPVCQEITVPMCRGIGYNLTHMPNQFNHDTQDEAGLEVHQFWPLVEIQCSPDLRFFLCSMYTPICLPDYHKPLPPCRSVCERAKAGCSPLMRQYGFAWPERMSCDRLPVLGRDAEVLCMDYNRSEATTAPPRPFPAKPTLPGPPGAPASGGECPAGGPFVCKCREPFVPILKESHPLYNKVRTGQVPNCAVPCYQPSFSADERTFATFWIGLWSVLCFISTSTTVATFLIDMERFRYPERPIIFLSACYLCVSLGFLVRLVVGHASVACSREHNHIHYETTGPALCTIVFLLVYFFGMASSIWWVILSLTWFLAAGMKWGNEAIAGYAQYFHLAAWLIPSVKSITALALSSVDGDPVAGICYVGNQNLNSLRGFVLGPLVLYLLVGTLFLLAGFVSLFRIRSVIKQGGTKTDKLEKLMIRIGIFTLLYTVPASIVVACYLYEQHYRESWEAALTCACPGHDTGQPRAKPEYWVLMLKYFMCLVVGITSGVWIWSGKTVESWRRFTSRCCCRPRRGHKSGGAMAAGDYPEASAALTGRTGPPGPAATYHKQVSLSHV

Tests used:
[1] = target: FZD5-Nluc (wild-type human Frizzled-5, C-terminally tagged with Nanoluciferase) (human) (UniProt Q13467); experiment: FRET or BRET; direct BRET titration in living HEK293A cells: constant amount of receptor-Nluc plasmid (donor), increasing amounts of DEP-Venus plasmid (acceptor); no WNT added (constitutive); HBSS, coelenterazine h 5 µM, 37 °C; net BRET fitted with a one site-specific binding equation (BRET50, BRETmax)
[2] = target: T1, FZD10-Nluc (wild type) (human) (UniProt Q9ULW2); experiment: as above
T1 sequence: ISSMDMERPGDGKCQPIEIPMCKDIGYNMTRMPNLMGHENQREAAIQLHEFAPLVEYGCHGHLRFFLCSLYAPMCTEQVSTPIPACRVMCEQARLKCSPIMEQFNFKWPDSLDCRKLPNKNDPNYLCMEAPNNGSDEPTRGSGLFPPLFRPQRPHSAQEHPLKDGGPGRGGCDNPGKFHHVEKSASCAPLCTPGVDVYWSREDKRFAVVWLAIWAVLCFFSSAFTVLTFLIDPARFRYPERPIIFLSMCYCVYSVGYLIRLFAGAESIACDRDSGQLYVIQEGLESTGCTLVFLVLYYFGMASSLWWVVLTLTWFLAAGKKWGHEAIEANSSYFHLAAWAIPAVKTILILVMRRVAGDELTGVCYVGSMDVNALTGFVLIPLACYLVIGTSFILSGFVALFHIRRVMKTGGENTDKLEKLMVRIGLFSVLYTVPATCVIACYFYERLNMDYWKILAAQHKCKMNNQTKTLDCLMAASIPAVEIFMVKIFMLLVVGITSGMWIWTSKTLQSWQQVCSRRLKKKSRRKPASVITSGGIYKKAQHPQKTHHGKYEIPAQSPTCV

binding [1]: binds
binding [2]: binds
B1: DEP-Venus (isolated DEP domain of human DVL2 tagged with mVenus) (domain or fragment, UniProt O14641 433-507)
chain: PESGLEVRDRMWLKITIPNAFLGSDVVDWLYHHVEGFPERREARKYASGLLKAGLIRHTVNKITFSEQCYYVFGD
